Source: PubChem BioAssay AID1347075 (National Center for Advancing Translational Sciences (NCATS), 2019)
The whole screen tested about 400,000 compounds, of which about 5,500 (1.4%) were called active. Inconclusive results, whose numbers are uncertain, are shown with a selection of clear calls. The call rests on the fitted dose curve; in most records, active means well fitted cell-killing curve with a large enough effect; inconclusive means small, poorly fitted or top-dose-only effect, or effect the other way; inactive means flat fitted curve, though single readings scatter. A potency beside an inconclusive call is a rough fit, not a confirmed value.
On the % scale 0 is the no-effect control and ±100 the full control effect; potency means the concentration at half of the fitted maximal effect.

Assay: qHTS assay for MDR1-selective chemotherapeutics: Primary screen using the parental adenocarcinoma cell KB-3-1; further: nearly all actives have a fitted effect of over 60% in size
Details: KB-3-1 viability, CellTiter-Glo ATP luminescence, 72 h; activity change, negative = cytotoxic: at 46.1 µM (top of the series)
How it was run: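 Screening of KB-3-1 cells (DMEM, 10% FBS, phenol-red free) ran from lowest to highest compound concentration; after 72 h at 37 °C viability was read luminescently and curves fitted.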
With `Cc1ccc(-c2nn(-c3ccccc3)cc2/C=C/C(=O)Nc2cccc(S(N)(=O)=O)c2)cc1` the Potency was inconclusive: 29.1 µM [cytotoxic, single point]. For `COc1ccc(OC)c(CCNC(=O)c2ccc3c(c2)N(Cc2ccc(C)cc2)CCS3)c1`, the Potency was “inactive”. In the case of `COc1ccc(F)cc1S(=O)(=O)NCCc1c(C)[nH]c2c(Cl)cccc12`, the Potency is reported as “inactive”. For `CC(C)(C)OC(=O)NCCCCCNC(=O)c1[nH]cnc1C(=O)N[C@@H](Cc1ccccc1)C(=O)OCc1ccccc1`, the Potency was inconclusive: 29.1 µM [cytotoxic, single point]. With `COc1ccc(Nc2cc(C(=O)NCCc3ccc(C)cc3)c3ccccc3n2)c(OC)c1` the activity change, negative = cytotoxic was inconclusive: -0.57%. For `CCOc1ccc(NC(=S)C(C#N)=C2N(C)c3ccccc3N2C)cc1`, the Potency was inconclusive: 8.2 µM [cytotoxic, partial curve, poor fit]. In the case of `CC(=O)O[C@@H]1[C@H]2[C@@H](C[C@@H](C)[C@@H]3C=CC(=O)[C@@]13C)OC(=O)[C@@H]2C`, the Potency is reported as “inactive”. With `COc1ccc(-c2nc3c4ccccc4ccn3c2C=O)cc1` the Potency was inconclusive: 18.4 µM [rising, partial curve, poor fit]. With `O=C(NCc1cccs1)C1C(=O)Nc2ccccc2C(=O)N1Cc1ccccc1` (centres undefined) the Potency was “inactive”. In the case of `CCOCCCNC(=O)C1CCN(c2nn3cc(-c4ccc(F)cc4)nc3s2)CC1`, the Potency is reported as inconclusive: 23.1 µM [cytotoxic, single point]. For `COc1cccc(CN(C)S(=O)(=O)c2ccccc2Br)c1`, the Potency was “inactive”. With `O=C(Nc1cccc(S(=O)(=O)N2CCOCC2)c1)c1ccc(Cl)nc1` the Potency was inconclusive: 29.1 µM [cytotoxic, single point]. For `CCCCOc1ccc(C(=O)Nc2nnc3n2CCS3)cc1`, the Potency was inconclusive: 25.9 µM [cytotoxic, partial curve, poor fit]. In the case of `C=C1C[C@@]23CCC4[C@@](C)(CCC[C@@]4(C)C(=O)O)C2CC[C@]1(O)C3` (some centres undefined), the Potency is reported as inconclusive: 0.0058 µM [rising, full curve]. With `CCOC(=O)N1CCC(NC(=O)c2c(C)nn(-c3ccc(C)cc3)c2-n2cccc2)CC1` the Potency was inconclusive: 25.9 µM [cytotoxic, single point]. With `Cc1nc2oc3c(NCc4ccccn4)ncnc3c2c2c1COC(C)(C)C2` the Potency was inconclusive: 10.3 µM [rising, partial curve, poor fit]. With `Fc1ccc2nc(Nc3nc4c(F)cc(F)cc4s3)sc2c1` the Potency was inconclusive: 18.4 µM [cytotoxic, single point]. In the case of `O=C(C[n+]1ccccc1)NNc1ccccc1`, the Potency is reported as active: 6.51 µM. For `O=S(=O)(Nc1ccccc1Br)c1cccc2cccnc12`, the Potency was “inactive”. In the case of `N/C(=N\OC(=O)N1CCOCC1)c1ccc(Cl)cc1`, the Potency is reported as inconclusive: 20.6 µM [cytotoxic, single point]. For `COc1ccc(N(S(=O)(=O)c2ccccc2)S(=O)(=O)c2ccccc2)c(N)c1`, the Potency was inconclusive: 18.4 µM [cytotoxic, single point]. In the case of `CCOCCC(=O)Nc1ccc2c(c1)c(=O)n(C)n2C/C=C/c1ccccc1`, the Potency is reported as active: 6.51 µM. In the case of `COc1ccc(NS(=O)(=O)c2ccc(OC)c(NC(=O)CNC(=O)c3ccc(OC)cc3)c2)cc1`, the Potency is reported as “inactive”. For `COc1ccc(NC(=O)c2cc([N+](=O)[O-])ccc2N2CCCC2)cc1`, the Potency was inconclusive: 0.461 µM [rising, full curve, poor fit]. In the case of `O=C(CSc1oc(-c2ccc(F)cc2)nc1S(=O)(=O)c1ccccc1)NCC1CCCO1` (centres undefined), the Potency is reported as inconclusive: 18.4 µM [cytotoxic, single point]. With `Cc1ccc(S(=O)(=O)/N=C(/Nc2cccc3ccccc23)c2ccc(F)cc2)cc1` the Potency was inconclusive: 29.1 µM [cytotoxic, single point]. With `COc1ccc(OC)c(C(=O)c2oc3ccccc3c2NC(C)=O)c1` the Potency was inconclusive: 35.5 µM [cytotoxic, single point]. With `CCOC(=O)Cc1cc(=O)n(-c2nc3ccccc3s2)[nH]1` the Potency was “inactive”. With `CCCCN(Cc1ccccc1)S(=O)(=O)c1cc(Br)cc2c1N(C(=O)C1CC1)CC2` the Potency was “inactive”. In the case of `COc1ccc(N2CCN(C(=O)CN3CCN(c4nc(-c5ccc(F)cc5)cs4)CC3)CC2)cc1`, the Potency is reported as active: 23.1 µM. In the case of `Cc1ccnc(NC(=O)c2ccoc2C)c1`, the Potency is reported as inconclusive: 23.1 µM [cytotoxic, single point]. For `O=C1CC(c2ccc3c(c2)OCCO3)Oc2ccc([N+](=O)[O-])cc21` (centres undefined), the Potency was inconclusive: 29.1 µM [cytotoxic, single point]. For `Cc1cccc(OCc2n(CC(=O)OC3CC(C)CCC3C(C)C)c3ccccc3[n+]2C)c1` (centres undefined), the Potency was inconclusive: 29.1 µM [cytotoxic, partial curve, poor fit]. With `CCOC(=O)c1ccc(NC(=O)Nc2ccc3c4c(cccc24)C(=O)N3CC)cc1` the Potency was “inactive”. In the case of `CC(=O)Nc1cc(C(=O)N2CCCC2)ccc1S(=O)(=O)c1ccc(Cl)cc1`, the Potency is reported as inconclusive: 20.6 µM [cytotoxic, partial curve, poor fit]. For `CCOc1ccc2[nH]c3c(NCCN(CC)CC)ncnc3c2c1`, the Potency was “inactive”. In the case of `Cc1nc2ccccc2nc1N/N=C/c1ccc(O)cc1O`, the Potency is reported as inconclusive: 20.6 µM [cytotoxic, single point]. For `Cc1ccc(NS(=O)(=O)c2ccccc2[N+](=O)[O-])cc1C`, the activity change, negative = cytotoxic was inconclusive: 30.1%. In the case of `COc1ccccc1C(=O)N1CCN(CCNC(=O)C(=O)Nc2ccc(Br)c(C)c2)CC1`, the Potency is reported as “inactive”. In the case of `Cc1ccc(NC(=O)CCNS(=O)(=O)c2ccc(Br)s2)cc1`, the Potency is reported as inconclusive: 29.1 µM [cytotoxic, single point]. For `O=C(Nc1ccccc1Cl)c1cc(S(=O)(=O)N2CCC3(CC2)OCCO3)ccc1F`, the Potency was inconclusive: 18.4 µM [cytotoxic, partial curve]. With `NC(Cc1ccc(C(F)(F)F)cc1)c1csc(Nc2ccc(C(=O)NCCCO)cn2)n1` (centres undefined) the Potency was inconclusive: 32.6 µM [cytotoxic, single point]. In the case of `O=C(NCC(=O)N1CCN(C(c2ccccc2)c2ccccc2)CC1)c1ccccc1Br`, the Potency is reported as inconclusive: 23.1 µM [cytotoxic, single point]. For `CN(C)/C=C/c1oc2ccc(O)cc2c1[N+](=O)[O-]`, the Potency was “inactive”. For `COc1ccc(Oc2cccc(Cl)c2CNC(=O)CSCC(=O)O)cc1`, the Potency was inconclusive: 0.0052 µM [rising, full curve, poor fit]. With `Nc1c(C(=O)O)cnc2c(-c3ccc(Cl)cc3)cnn12` the Potency was inconclusive: 29.1 µM [cytotoxic, single point]. In the case of `O=C1C=CC(=O)c2c(O)c(N3CCN(CCO)CC3)c(Cl)c(O)c21`, the Potency is reported as active: 5.17 µM. For `CCOC(=O)c1c(C)[nH]c(C(=O)COC(=O)c2ccc([N+](=O)[O-])o2)c1C`, the Potency was inconclusive: 29.1 µM [cytotoxic, single point]. With `O=C(CCS(=O)(=O)c1ccccc1)Nc1nc2c(s1)COc1ccccc1-2` the activity change, negative = cytotoxic was inconclusive: -32.3% [cytotoxic]. In the case of `CCC(C)C1C(C#N)=C(N)Oc2n[nH]c(C)c21` (centres undefined), the Potency is reported as inconclusive: 23.1 µM [cytotoxic, single point]. In the case of `COc1ccc(S(=O)(=O)Oc2ccccc2C(N)=O)cc1`, the Potency is reported as “inactive”. In the case of `COc1ccc(O)c(-c2cn[nH]c2-c2cccs2)c1`, the Potency is reported as inconclusive: 0.0065 µM [rising, full curve]. With `CCCCCCC[N+](CC)(CC)CCCCc1ccc(Cl)cc1` the Potency was inconclusive: 3.66 µM [cytotoxic, full curve]. For `COC(=O)C(CC(C)C)N(Cc1cc(OC)cc(OC)c1)S(=O)(=O)c1ccccc1Br` (centres undefined), the Potency was “inactive”. For `O=C1NCc2c1c1c3ccccc3[nH]c1c1[nH]c3ccccc3c21`, the Potency was inconclusive: 29.1 µM [cytotoxic, single point]. In the case of `Cc1nc2ccccc2n1CC(=O)N/N=C\c1ccccn1`, the Potency is reported as “inactive”. In the case of `COc1ccccc1NS(=O)(=O)c1cccc(NC(=O)c2nn(C)c(=O)c3ccccc23)c1`, the Potency is reported as inconclusive: 13 µM [cytotoxic, partial curve]. In the case of `Cc1ccc2nc(/C(C#N)=C/c3ccc(O)c(O)c3)[nH]c2c1`, the Potency is reported as inconclusive: 29.1 µM [cytotoxic, single point]. With `CC1CCN(S(=O)(=O)c2ccc3c(c2)oc(=O)n3CC(=O)NC(C)c2ccccc2)CC1` (centres undefined) the Potency was inconclusive: 25.9 µM [cytotoxic, single point]. For `Cc1ccc(C(=O)Nc2ncc(Cc3ccc(SC(F)F)cc3)s2)cc1`, the Potency was inconclusive: 0.58 µM [cytotoxic, full curve, poor fit]. In the case of `O=C(Nc1nc2c(s1)CCCC2)c1ccc(S(=O)(=O)N2CCCc3ccccc32)cc1`, the Potency is reported as active: 5.8 µM. In the case of `COc1ccc(OCC(=O)N2CCN(c3nnc(-c4ccccc4)c4ccccc34)CC2)cc1`, the Potency is reported as active: 23.1 µM. For `Cc1cc(C)nc(Nc2ccccc2Cl)n1`, the Potency was “inactive”. For `CC(=O)c1nc(N2C(=O)CC(Cc3cc(C)cc(C)c3)C2=O)sc1C` (centres undefined), the Potency was inconclusive: 13 µM [rising, partial curve, poor fit]. For `COc1ccc(CN2CC(=O)N3[C@H]4c5ccccc5OC[C@@H]4[C@H](c4ccccc4)[C@]3(C)C2=O)cc1`, the Potency was inconclusive: 20.6 µM [cytotoxic, single point]. With `Cc1ccc(N2C(=O)CC(Sc3nc(C)cc(C)n3)C2=O)cc1` (centres undefined) the Potency was inconclusive: 25.9 µM [cytotoxic, partial curve, poor fit]. For `Cc1cccc(CNC(=O)c2cccc(NC(=O)N3CCSc4ncccc43)c2)c1`, the Potency was “inactive”. For `COc1cc(C2=NOC(C(=O)NCc3cccs3)C2)cc(OC)c1OC` (centres undefined), the Potency was active: 2.06 µM. For `COC(=O)[C@]1(C)CCC[C@@]2(C)C3CC[C@@]4(C)C[C@]3(CCC21)CC(=O)N4Cc1ccc(OC)cc1` (some centres undefined), the Potency was inconclusive: 16.4 µM [cytotoxic, single point].
